Results are given in words; binding and its absence hold for the method and conditions named. In cells and extracts the contact can be indirect. These calls come from enrichment with a bait or labelling near it, and not all partners need be listed. Where a sequence is shown, tags or fusion partners need not be part of it.
Target: T1, X. laevis CEP97 WT, exogenous, tag not named for the experiment (X. laevis) (UniProt Q6GPJ8)
T1 sequence: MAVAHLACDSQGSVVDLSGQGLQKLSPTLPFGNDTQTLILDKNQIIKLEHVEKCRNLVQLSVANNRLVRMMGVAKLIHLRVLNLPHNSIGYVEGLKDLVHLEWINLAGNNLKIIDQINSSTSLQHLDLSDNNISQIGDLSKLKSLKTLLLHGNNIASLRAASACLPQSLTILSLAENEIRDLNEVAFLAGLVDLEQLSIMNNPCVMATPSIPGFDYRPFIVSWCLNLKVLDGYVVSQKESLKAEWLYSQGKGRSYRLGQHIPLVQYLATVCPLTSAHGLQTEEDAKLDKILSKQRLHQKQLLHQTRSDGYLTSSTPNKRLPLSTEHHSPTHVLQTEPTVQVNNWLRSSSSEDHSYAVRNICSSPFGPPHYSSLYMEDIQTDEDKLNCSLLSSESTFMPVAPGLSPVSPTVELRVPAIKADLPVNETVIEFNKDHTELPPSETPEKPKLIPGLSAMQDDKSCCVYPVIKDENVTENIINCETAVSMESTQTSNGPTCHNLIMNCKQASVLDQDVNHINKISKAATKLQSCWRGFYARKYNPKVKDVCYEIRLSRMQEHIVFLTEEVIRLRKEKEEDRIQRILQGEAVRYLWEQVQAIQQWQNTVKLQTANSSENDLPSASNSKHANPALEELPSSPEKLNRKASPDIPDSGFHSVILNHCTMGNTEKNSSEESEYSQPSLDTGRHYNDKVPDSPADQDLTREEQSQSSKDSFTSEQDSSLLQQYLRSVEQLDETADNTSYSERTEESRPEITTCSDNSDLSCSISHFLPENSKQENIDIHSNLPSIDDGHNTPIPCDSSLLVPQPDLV
Experiment: affinity purification with mass spectrometry; IP of exogenous CEP97 from neurula stage Xenopus embryos, bound proteins eluted with 4% SDS, trypsin digest, LC/MS-MS; two independent experiments

Sequences of proteins named here, by UniProt entry; tags and fusion partners are left off.
UniProt P70032: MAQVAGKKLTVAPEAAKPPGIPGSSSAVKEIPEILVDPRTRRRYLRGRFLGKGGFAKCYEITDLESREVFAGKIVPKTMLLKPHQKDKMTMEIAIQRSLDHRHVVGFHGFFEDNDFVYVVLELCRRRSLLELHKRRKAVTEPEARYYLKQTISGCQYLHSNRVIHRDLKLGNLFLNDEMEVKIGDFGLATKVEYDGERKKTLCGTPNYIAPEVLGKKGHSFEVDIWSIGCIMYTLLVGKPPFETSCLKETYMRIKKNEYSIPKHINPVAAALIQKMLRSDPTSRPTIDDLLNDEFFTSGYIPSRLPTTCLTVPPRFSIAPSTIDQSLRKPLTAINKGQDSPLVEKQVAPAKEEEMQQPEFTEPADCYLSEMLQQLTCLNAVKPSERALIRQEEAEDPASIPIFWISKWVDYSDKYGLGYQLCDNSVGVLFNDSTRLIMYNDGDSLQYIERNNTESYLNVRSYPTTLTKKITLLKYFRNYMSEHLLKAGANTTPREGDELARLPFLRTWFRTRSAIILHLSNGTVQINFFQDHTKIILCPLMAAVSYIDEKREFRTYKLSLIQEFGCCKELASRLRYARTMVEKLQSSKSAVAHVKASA

Row | binding | Substance
1 | binds | Dyrk1a, endogenous in Xenopus embryos (from UniProt Q2TAE3 1-750) (enzyme)
2 | binds | Plk1, endogenous in Xenopus embryos (from UniProt P70032 1-598) (enzyme)

— article PMC8719716
